Data as given in PubChem BioAssay AID1159578 (Peter MacCallum Cancer Centre, 2015)
Test: 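siRNA pools altering how lymphatic endothelial cells close a scratch wound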 (primary screen). Cell system: human lymphatic endothelial cells. Reagent: siRNA pool against human genes, 40 nM. Time to read-out: 48 h after transfection. Detection: 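High-content imaging of dye-stained cells in a scratch assay measures filled wound area and nuclei per well; duplicate means given as ratio to mock and robust z-score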. Reading the numbers: migration robust z-score: higher = faster migration into the scratch; nuclei per well: higher = more cells in the well. Rule for the call: 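Migration changed when robust z exceeds 2 or falls below -2 and mean nuclei number is at least 3300; otherwise not called changed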. Calls: active = migration changed; inactive = no migration change, or too few cells.
The whole screen tested about 18,000 reagents; below is an unselected part. About 1,030 of them (5.7%) were called active. 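Inactive calls also include pools with fewer than 3300 nuclei, whose migration was not assessed.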 The raw values are shown without normalisation. Further read-outs or replicates are left out here.

{"gene": "SELENOS", "migration robust z-score": -0.39, "migration class with cell-count check": "migration z between -2 and 2; enough cells", "nuclei per well, duplicate mean": 4879, "activity call": "inactive"}
{"gene": "OR2A25", "migration robust z-score": 1.59, "migration class with cell-count check": "migration z between -2 and 2; enough cells", "nuclei per well, duplicate mean": 6302, "activity call": "inactive"}
{"gene": "CCR7", "migration robust z-score": 0.02, "migration class with cell-count check": "migration z between -2 and 2; enough cells", "nuclei per well, duplicate mean": 7454, "activity call": "inactive"}
{"gene": "TAF1D", "migration robust z-score": 0.05, "migration class with cell-count check": "migration z between -2 and 2; enough cells", "nuclei per well, duplicate mean": 6565, "activity call": "inactive"}
{"gene": "RPS4X", "migration robust z-score": -1.1, "migration class with cell-count check": "migration z between -2 and 2; enough cells", "nuclei per well, duplicate mean": 5096, "activity call": "inactive"}
{"gene": "PTF1A", "migration robust z-score": 1.28, "migration class with cell-count check": "migration z between -2 and 2; enough cells", "nuclei per well, duplicate mean": 5686, "activity call": "inactive"}
{"gene": "PLEKHH3", "migration robust z-score": -1.35, "migration class with cell-count check": "migration z between -2 and 2; enough cells", "nuclei per well, duplicate mean": 5401, "activity call": "inactive"}
{"gene": "DEPDC7", "migration robust z-score": 0.52, "migration class with cell-count check": "migration z between -2 and 2; enough cells", "nuclei per well, duplicate mean": 6178, "activity call": "inactive"}
{"gene": "CIDEA", "migration robust z-score": 0.12, "migration class with cell-count check": "migration z between -2 and 2; enough cells", "nuclei per well, duplicate mean": 4344, "activity call": "inactive"}
{"gene": "TREH", "migration robust z-score": -0.18, "migration class with cell-count check": "migration z between -2 and 2; enough cells", "nuclei per well, duplicate mean": 6529, "activity call": "inactive"}
{"gene": "EPO", "migration robust z-score": -0.04, "migration class with cell-count check": "migration z between -2 and 2; enough cells", "nuclei per well, duplicate mean": 5391, "activity call": "inactive"}

Next part; the last 3 above are carried over.
{"gene": "CIDEA", "migration robust z-score": 0.12, "migration class with cell-count check": "migration z between -2 and 2; enough cells", "nuclei per well, duplicate mean": 4344, "activity call": "inactive"}
{"gene": "TREH", "migration robust z-score": -0.18, "migration class with cell-count check": "migration z between -2 and 2; enough cells", "nuclei per well, duplicate mean": 6529, "activity call": "inactive"}
{"gene": "EPO", "migration robust z-score": -0.04, "migration class with cell-count check": "migration z between -2 and 2; enough cells", "nuclei per well, duplicate mean": 5391, "activity call": "inactive"}
{"gene": "FBLN1", "migration robust z-score": 1.36, "migration class with cell-count check": "migration z between -2 and 2; enough cells", "nuclei per well, duplicate mean": 6578, "activity call": "inactive"}
{"gene": "UPK1B", "migration robust z-score": 1.2, "migration class with cell-count check": "migration z between -2 and 2; enough cells", "nuclei per well, duplicate mean": 6217, "activity call": "inactive"}
{"gene": "NAA16", "migration robust z-score": 0.36, "migration class with cell-count check": "migration z between -2 and 2; enough cells", "nuclei per well, duplicate mean": 5956, "activity call": "inactive"}
{"gene": "CCL24", "migration robust z-score": -1.06, "migration class with cell-count check": "migration z between -2 and 2; enough cells", "nuclei per well, duplicate mean": 4764, "activity call": "inactive"}
{"gene": "MN1", "migration robust z-score": -1.64, "migration class with cell-count check": "migration z between -2 and 2; enough cells", "nuclei per well, duplicate mean": 7145, "activity call": "inactive"}
{"gene": "CPNE7", "migration robust z-score": 0.54, "migration class with cell-count check": "migration z between -2 and 2; enough cells", "nuclei per well, duplicate mean": 7115, "activity call": "inactive"}
{"gene": "SPON2", "migration robust z-score": -1.19, "migration class with cell-count check": "migration z between -2 and 2; enough cells", "nuclei per well, duplicate mean": 5510, "activity call": "inactive"}
{"gene": "GNAZ", "migration robust z-score": 0.37, "migration class with cell-count check": "migration z between -2 and 2; enough cells", "nuclei per well, duplicate mean": 5166, "activity call": "inactive"}
{"gene": "POLR2B", "migration robust z-score": -1.01, "migration class with cell-count check": "migration z between -2 and 2; enough cells", "nuclei per well, duplicate mean": 5552, "activity call": "inactive"}
{"gene": "SERP2", "migration robust z-score": -0.82, "migration class with cell-count check": "migration z between -2 and 2; enough cells", "nuclei per well, duplicate mean": 3342, "activity call": "inactive"}
